Values from PubChem BioAssay AID1259254 (NCATS, 2017).
The whole screen tested about 59,000 reagents; shown is a part drawn at random. Of all reagents, about 1,550 (2.6%) got an active call. 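G2 share is only a proxy for re-replication; each gene was hit by three separate siRNAs, and active genes were retested.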 A number with no mark means an inactive call. The numbers tell different reagents against one gene apart. Further read-outs or replicates are left out here. No sequences are given here. Not given: the amount of reagent.

- Test: 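Gene knock-downs that lead to re-replication, shown by excess G2 DNA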 (primary screen)
- Cell system: human HCT116 colorectal cancer cells
- Reagents: single siRNA against human genes
- Timing: 3 days
- Measurement: 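Imaged Hoechst DNA stain sorts each cell into a cycle phase by DNA amount; per plate, G2 fraction set to 0% for non-targeting and 100% for GMNN siRNA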
- Scale: G2 robust z-score and G2 cells, % of GMNN control: higher = more G2 cells, more excess DNA replication
- Call rule: 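Active siRNAs have a G2 robust z of 5 or more median absolute deviations over the median, which in these data means about 38% or higher of GMNN control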

TAS2R60 (taste 2 receptor member 60) #1 — G2 robust z-score: 0.116; G2 cells, % of GMNN control: 3.78
TAS2R60 (taste 2 receptor member 60) #2 — G2 robust z-score: 0.301; G2 cells, % of GMNN control: 5.09
TAS2R60 (taste 2 receptor member 60) #3 — G2 robust z-score: 3.88; G2 cells, % of GMNN control: 30.3
ASB15 (ankyrin repeat and SOCS box containing 15) #1 — G2 robust z-score: -1.18; G2 cells, % of GMNN control: -5.37
ASB15 (ankyrin repeat and SOCS box containing 15) #2 — G2 robust z-score: 0.402; G2 cells, % of GMNN control: 5.8
ASB15 (ankyrin repeat and SOCS box containing 15) #3 — G2 robust z-score: -0.302; G2 cells, % of GMNN control: 0.842
DHX32 (DEAH-box helicase 32 (putative)) #1 — G2 robust z-score: 0.534; G2 cells, % of GMNN control: 6.72
DHX32 (DEAH-box helicase 32 (putative)) #2 — G2 robust z-score: 1.79; G2 cells, % of GMNN control: 15.6
DHX32 (DEAH-box helicase 32 (putative)) #3 — G2 robust z-score: -0.897; G2 cells, % of GMNN control: -3.34
TMEM252 (transmembrane protein 252) #1 — G2 robust z-score: -0.137; G2 cells, % of GMNN control: 2
TMEM252 (transmembrane protein 252) #2 — G2 robust z-score: 1.33; G2 cells, % of GMNN control: 12.3
TMEM252 (transmembrane protein 252) #3 — G2 robust z-score: 3.68; G2 cells, % of GMNN control: 28.8
DSG3 (desmoglein 3) #1 — G2 robust z-score: -1.08; G2 cells, % of GMNN control: -4.62
DSG3 (desmoglein 3) #2 — G2 robust z-score: -0.389; G2 cells, % of GMNN control: 0.227
DSG3 (desmoglein 3) #3 — G2 robust z-score: -0.315; G2 cells, % of GMNN control: 0.75
RIMBP2 (RIMS binding protein 2) #1 — G2 robust z-score: 0.379; G2 cells, % of GMNN control: 5.63
RIMBP2 (RIMS binding protein 2) #2 — G2 robust z-score: -0.377; G2 cells, % of GMNN control: 0.314
RIMBP2 (RIMS binding protein 2) #3 — G2 robust z-score: -0.279; G2 cells, % of GMNN control: 1.01
UBTD2 (ubiquitin domain containing 2) #1 — G2 robust z-score: -0.852; G2 cells, % of GMNN control: -3.03
UBTD2 (ubiquitin domain containing 2) #2 — G2 robust z-score: 0.918; G2 cells, % of GMNN control: 9.43
UBTD2 (ubiquitin domain containing 2) #3 — G2 robust z-score: 0.781; G2 cells, % of GMNN control: 8.46
TXNDC15 (thioredoxin domain containing 15) #1 — G2 robust z-score: 0.801; G2 cells, % of GMNN control: 8.6
TXNDC15 (thioredoxin domain containing 15) #2 — G2 robust z-score: 2.33; G2 cells, % of GMNN control: 19.4
TXNDC15 (thioredoxin domain containing 15) #3 — G2 robust z-score: -0.687; G2 cells, % of GMNN control: -1.87

Copied from above for reference:
DHX32 (DEAH-box helicase 32 (putative)) #3 — G2 robust z-score: -0.897; G2 cells, % of GMNN control: -3.34
TMEM252 (transmembrane protein 252) #1 — G2 robust z-score: -0.137; G2 cells, % of GMNN control: 2
